PubChem BioAssay AID504808 – Drosophila RNAi Screening Center | 2011
The screen tested about 21,000 reagents; this is a random part of those that have a named target and a result. Over the whole deposit, 18 (0.084%) got an active call. 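Raw counts without plate normalisation, one of two replicates; the ratio scores behind the calls were not deposited.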 Entries without a mark were called inactive. A plus sign joins genes that one reagent is predicted to hit. The record does not give: the amount of reagent, the time to read-out.

- Screen: 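Genes whose loss lifts activity of an E2F-responsive reporter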 (primary screen)
- Cells: Drosophila S2 cells
- Reagent: long dsRNA against Drosophila genes
- Measured: 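Firefly luciferase driven by E2F sites, normalised to Renilla luciferase on the same minimal promoter, measured by plate reader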
- Scale: E2F firefly: higher = more E2F reporter activity; Renilla normaliser: higher = more normaliser reporter signal
- Hit rule: 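a knock-down counted as active when the firefly/Renilla E2F signal rose above 50%, a threshold chosen arbitrarily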

target	DRSC id	E2F firefly, rep 1	Renilla normaliser, rep 1
CG15414 (GeneID 33570)	DRSC00429	1.56e5	5185
GAA1 (GeneID 31517)	DRSC18267	8462	800
Mhc (GeneID 35007)	DRSC03367	99015	4507
Taf7 (GeneID 40934)	DRSC15445	96312	5398
tkv (GeneID 33753)	DRSC00860	1.24e5	4360
tkv (GeneID 33753)	DRSC03623	91965	4083
CG16959 (GeneID 39648)	DRSC10230	67423	3324
lectin-46Ca (GeneID 53523)	DRSC06612	71639	4298
Acp53C14b (GeneID 36873)	DRSC06569	1.43e5	4781
RpS17 (GeneID 39088)	DRSC11271	68626	7007
CG14691 (GeneID 41287)	DRSC14914	1.62e5	6311
CG17490 (GeneID 3355125)	DRSC03794	1.18e5	4855
CG17490 (GeneID 3355125)	DRSC03797	97211	4219
qin (GeneID 42236)	DRSC14782	1.49e5	7799
CG10898 (GeneID 41384)	DRSC14279	73919	3203
Cyp311a1 (GeneID 32170)	DRSC20239	1.44e5	6503
CG8584 (GeneID 35856)	DRSC07217	1.52e5	5012
CanB (GeneID 44317)	DRSC18449	74103	5883
sub (GeneID 44870)	DRSC06125	81039	3456
Or22b (GeneID 33336)	DRSC00765	1.79e5	6757
l(3)73Ah (GeneID 48903)	DRSC11359	1.15e5	7920
CG6865 (GeneID 40050)	DRSC10732	1.54e5	8228
phu (GeneID 41135)	DRSC16390	1.50e5	7067
smash (GeneID 40583)	DRSC12139	86988	3382
smash (GeneID 40583)	DRSC12239	1.21e5	7193
CG30429 (GeneID 246609)	DRSC04040	1.35e5	5539
Mst57Dc (GeneID 43121)	DRSC16745	1.23e5	6899
CG30060 (GeneID 246426)	DRSC05419	1.36e5	5004
CG13334 (GeneID 36510)	DRSC06369	1.03e5	4253
CG4598 (GeneID 34315)	DRSC02763	1.59e5	5051
CG9962 (GeneID 33448)	DRSC00739	1.68e5	6068
rau (GeneID 33814)	DRSC03125	85968	3909
CG1523 (GeneID 43400)	DRSC15033	2159	876
CG9147 (GeneID 33855)	DRSC03147	1.52e5	5332
saturn (GeneID 317880)	DRSC09303	1.29e5	2960
por (GeneID 32818)	DRSC20362	1.53e5	7043
sowah (GeneID 39438)	DRSC09186	1.42e5	4708
sowah (GeneID 39438)	DRSC09758	75251	3820
Hira (GeneID 31680)	DRSC18672	1.04e5	5426
Mitf (GeneID 3885647)	DRSC17212	40839	3573
Mitf (GeneID 3885647)	DRSC21056	72188	4397
Brf (GeneID 42087)	DRSC13228	82323	2592
Brf (GeneID 42087)	DRSC14166	1.12e5	6900
Brf (GeneID 42087)	DRSC14167	1.24e5	7047
CG9686 (GeneID 31921)	DRSC18439	1.01e5	5462
okr (GeneID 33507)	DRSC00834	81091	4051
Psf3 (GeneID 31967)	DRSC18216	1.09e5	7058
Pex6 + Hao	DRSC06097	3080	163
Pex6 + Hao	DRSC06704	1.49e5	4878
Rack1 (GeneID 34070)	DRSC03405	1.70e5	6985
CG1503 (GeneID 33090)	DRSC20512	1.42e5	5520
Gpo1 (GeneID 47611)	DRSC07128	66939	3384
Rap2l (GeneID 37850)	DRSC04646	1.15e5	4073
CG33792 (GeneID 3772111)	DRSC05355	1.46e5	5180
CG3287 (retired record) (GeneID 48441)	DRSC04991	1.37e5	4633
Lar (GeneID 35259)	DRSC01707	1.35e5	6338
Lar (GeneID 35259)	DRSC03361	80785	3591

Not a retest: entries from further up.
target	DRSC id	E2F firefly, rep 1	Renilla normaliser, rep 1
Mhc (GeneID 35007)	DRSC03367	99015	4507
Taf7 (GeneID 40934)	DRSC15445	96312	5398
tkv (GeneID 33753)	DRSC00860	1.24e5	4360
tkv (GeneID 33753)	DRSC03623	91965	4083
